Results: US20230174938A1, “METHODS AND COMPOSITIONS FOR GENERATING HUMAN ERYTHROID PROGENITOR CELLS” (Trailhead Biosystems Inc., priority 2021, published 2023)
At least one structure is not confirmed: it was looked up by name or label, or the drawing left a doubt.

System: CD34+ population of cells isolated from cord blood
Test: HD-DoE 8-factor experiment optimized for maximum expression of GATA1 (stage 1)
Format: cell-based, human
Details: 8-factor model
Experimental: The effector combinations were prepared in a basal media and were subsequently added to the cells, which were then allowed to differentiate. […] Solutions within the tested space could then be explored to address desirability.

**Q.** With `C[C@@H]1C[C@H]2[C@@H]3CCC4=CC(=O)C=C[C@]4(C)[C@@]3(F)[C@@H](O)C[C@]2(C)[C@@]1(O)C(=O)CO` [Dexamethasone] as the compound, how does the “impact on GATA1 expression” value read?
**A.** The value was “interfered with the maximal expression of GATA1”.
